Assay results as given in PubChem BioAssay AID504444 (National Center for Advancing Translational Sciences (NCATS), 2011).
The campaign covered roughly 360,000 compounds. About 7,500 (2.1%) were called active. The inconclusive results got no clear call from the source; some entries with a clear call stand among them for comparison. Calls come from the whole dose curve; as a rule, active = well fitted inhibition curve with a large enough effect; inconclusive = small, poorly fitted or top-dose-only effect, or effect the other way; inactive = flat fitted curve, though single readings scatter. Where the call is inconclusive, the potency comes from a doubtful curve fit.

Experiment: Nrf2 qHTS screen for inhibitors; note: nearly all actives have a fitted effect of over 60% in size
Details: A549 ARE-Fluc reporter, luciferase luminescence, 18-24 h; series mostly up to 46 µM
How it was run: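 Reporter: ARE-Fluc in A549. Exposure: 18-24 h, 37 °C, 5% CO2, 5% FBS OPTI-MEM. Readouts: fluorescent cytotoxicity (CellTiter-Fluor), then luminescent Nrf2 signal after BugLite.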
Potency is the fitted concentration of half-maximal effect.

| SMILES | Potency |
| --- | --- |
| CN(Cc1ccccc1F)C(=O)c1sccc1-c1ccccc1 | inconclusive: 14.6 µM [activator, partial curve, poor fit] |
| Cc1ccc(C(c2nnnn2CCc2ccccc2)N2CCC(C)CC2)cc1 (stereo not given) | inactive |
| CC(C)C(=O)N1CCN(c2ccc(NC(=O)c3ccc([N+](=O)[O-])o3)cc2Cl)CC1 | inactive |
| CN1/C(=C\C(=O)COC(=O)c2ccco2)C(C)(C)c2ccccc21 | inconclusive: 29.1 µM [falling, single point] |
| CCC(C)(C(=O)NC1CCCC1)N(C(=O)Cc1cccs1)c1c(C)n(C)n(-c2ccccc2)c1=O (stereo not given) | inconclusive: 7.31 µM [activator, partial curve, poor fit] |
| O=C(COc1ccc(S(=O)(=O)NC2CCCCC2)cc1)N1CCN(c2cccc(Cl)c2)CC1 | active: 5.8 µM |
| Cc1cc(C(=O)N/N=C/c2cccs2)n[nH]1 | inconclusive: 23.1 µM [activator, single point] |
| Nc1ccc(C2(c3ccc(N)cc3)c3ccccc3C(=O)c3ccccc32)cc1 | inconclusive: 29.1 µM [activator, single point] |
| Cc1cc(SCC(=O)Nc2cccc(S(=O)(=O)NC3=NCCCCC3)c2)c(C)cc1Br | inconclusive: 18.4 µM [falling, single point] |
| O=C(Nc1ccsc1C(=O)O)c1ccc(Cl)cc1 | inconclusive: 2.06 µM [activator, partial curve, poor fit] |
| O=C(NCCN1CCOCC1)c1c[nH]c2ccc(S(=O)(=O)N3CCOCC3)cc2c1=O | inactive |
| CCOC(=O)c1sc(C)c2c1NC(C)(c1cccs1)NC2=O (stereo not given) | inconclusive: 13 µM [falling, partial curve, poor fit] |
| CCC(=O)/C=C1\Sc2ccc(OC)cc2N1CCO | inconclusive: 18.4 µM [activator, partial curve, poor fit] |
| OC[C@@H]1[C@@H](c2ccc(Cl)cc2)C(c2cccc(Cl)c2)=NN1c1ccccc1 | inconclusive: 29.1 µM [falling, single point] |
| CC(C)CNS(=O)(=O)c1ccc(CC(C)C)cc1 | inactive |
| CC1CCCN(S(=O)(=O)c2ccc(C(=O)Nc3nnc(-c4ccccc4Cl)o3)cc2)C1 (stereo not given) | inconclusive: 4.11 µM [falling, full curve] |
| CN1C(=O)CSc2ccc(NC(=O)N3CCOCC3)cc21 | inconclusive: 5.8 µM [activator, single point] |
| O=C(CN1C(=O)S/C(=C/c2cccs2)C1=O)N1CCCC1 | inconclusive: 23.1 µM [activator, partial curve, poor fit] |
| CC(=O)N1c2ccc(S(=O)(=O)NCC3CCC(C(=O)N4CC(C)CC(C)C4)CC3)cc2CC1C (stereo not given) | active: 16.4 µM |
| COc1cc(C(=O)NCC(c2ccco2)N2CCCC2)ccc1OCc1ccc(Cl)cc1Cl (stereo not given) | inconclusive: 8.2 µM [falling, partial curve, poor fit] |
| CCOc1ccccc1-n1ccnc(NCc2ccc(F)cc2)c1=O | inconclusive: 29.1 µM [activator, single point] |
| O=[N+]([O-])c1cn(-c2nc(-c3ccco3)cc(C(F)(F)F)n2)cn1 | inconclusive: 2.59 µM [falling, partial curve, poor fit] |

| SMILES | Potency |
| --- | --- |
| Cc1ccc(NC(=O)COc2ccccc2)cc1Cl | inconclusive: 16.4 µM [activator, single point] |
| O=C(N/N=C\c1ccc(COc2ccc([N+](=O)[O-])cc2)o1)c1ccc(Cl)cc1 | inconclusive: 29.1 µM [falling, single point] |
| Cc1cccc(NC(=O)Nc2nnc(N(C)C3CCCCC3)s2)c1C | inconclusive: 23.1 µM [activator, partial curve, poor fit] |
| O=C(O)CCC(=O)N1CCN(c2nc(-c3ccccc3)c3cc(Br)ccc3n2)CC1 | inconclusive: 29.1 µM [falling, single point] |
| Cc1ccc(Oc2ncccc2NC(=O)CC2(CC(=O)O)CCCC2)c2c1CCC2 | inactive |
| COc1ccc(NC(=O)COC(=O)c2cccn2C)cc1S(=O)(=O)N1CCCCC1 | inconclusive: 29.1 µM [falling, single point] |
| Cc1ccc(NS(=O)(=O)c2ccc3c(c2)CCC(=O)N3)cc1C | inconclusive: 23.1 µM [falling, single point] |
| Cc1cc2cc(CNC(=S)Nc3ccc(OC(F)(F)F)cc3)ccc2[nH]1 | inconclusive: 23.1 µM [falling, single point] |
| CCN(CC)c1nc(-c2ccc(C(C)(C)C)cc2)nc2ccccc12 | inconclusive: 20.6 µM [activator, partial curve] |
| Cc1ccc(/C=N/NC(=O)c2c[nH]c3ccccc23)s1 | inconclusive: 5.17 µM [activator, full curve] |
| N#CC(C#N)=C(N)CSc1cccc[n+]1[O-] | inactive |
| O=C(NCCCN=C1NS(=O)(=O)c2ccccc21)c1ccccc1Cl | inactive |
| CCCC(=O)N(CCc1ccc(OC)cc1)Cc1nc2ccccc2c(=O)[nH]1 | active: 23.1 µM |
| [O-][N+](=Cc1ccccc1)c1ccc(Cl)cc1 | inconclusive: 11.6 µM [activator, partial curve] |
| O=C(NCc1cccs1)c1ccc2c(c1)OCCO2 | inconclusive: 2.06 µM [activator, full curve, poor fit] |
| COc1ccc(-c2noc(-c3ccoc3C)n2)cc1OC | inconclusive: 16.4 µM [activator, partial curve] |
| S=c1[nH]nc(COc2ccccc2)n1/N=C/c1ccccn1 | inactive |
| CCOC(=O)c1ccc(S(=O)(=O)N2CCNCC2)cc1 | inconclusive: 9.2 µM [activator, partial curve, poor fit] |
| Cc1ccc(/C=N/Nc2ccc(Cl)c(C(=O)O)c2)s1 | inconclusive: 9.2 µM [activator, partial curve] |
| COc1cc(N2C(=O)C=CC2=O)c(OC)cc1Cl | inconclusive: 18.4 µM [falling, partial curve, poor fit] |
| COc1ccccc1NS(=O)(=O)c1cccc(NC(=O)NC2CCCCC2)c1 | inconclusive: 18.4 µM [falling, single point] |
| N#Cc1ccccc1COC(=O)CCN=C1NS(=O)(=O)c2ccccc21 | inconclusive: 5.8 µM [activator, partial curve, poor fit] |

Looked up above:
Potency with `Cc1ccc(NS(=O)(=O)c2ccc3c(c2)CCC(=O)N3)cc1C` is entered as inconclusive: 23.1 µM [falling, single point]
Potency with `O=C(O)CCC(=O)N1CCN(c2nc(-c3ccccc3)c3cc(Br)ccc3n2)CC1` is entered as inconclusive: 29.1 µM [falling, single point]

Additional compounds

| SMILES | Potency |
| --- | --- |
| CC1CCN(C(=S)Nc2ccc(SC(F)F)cc2)CC1 | inconclusive: 6.51 µM [activator, single point] |
| CCCN(CCC)C(=O)/C=C/c1cccc([N+](=O)[O-])c1 | inactive |
| O=S(=O)(c1ccc(OC(F)(F)F)cc1)N1CCC(O)(c2cccc(C(F)(F)F)c2)CC1 | inconclusive: 29.1 µM [falling, partial curve, poor fit] |
| Cc1[nH]n2c(=O)c3c(nc2c1-c1ccc(F)cc1)CCCC3 | inconclusive: 25.9 µM [falling, single point] |
| CN1C[C@@H]2C[C@@H](c3cccn3-c3nccs3)N3CCC[C@@]23C1=O | inconclusive: 5.8 µM [activator, full curve, poor fit] |
| NNC(=O)c1[nH]c2ccc([N+](=O)[O-])cc2c1-c1ccccc1 | inconclusive: 14.6 µM [activator, single point] |
| O=c1nc2sc3ccccc3n2c(=O)n1-c1cccc(Cl)c1 | inconclusive: 20.6 µM [activator, partial curve] |
| O=C(NCc1ccccc1Cl)c1ccc(Cn2cc(C(F)(F)F)ccc2=O)cc1 | inactive |
| COc1ccc(/C=N/Nc2nnc(-c3ccccc3)c(=O)[nH]2)cc1 | inconclusive: 25.9 µM [falling, single point] |
| O=C(CSc1nc(Nc2ccccc2)nc(N2CCOCC2)n1)Nc1ccc2c(c1)OCCO2 | inconclusive: 18.4 µM [falling, partial curve, poor fit] |
| CCCn1c(-c2cc(OC)c(OC)c(OC)c2)nc2c1c(=O)[nH]c(=O)n2Cc1ccccc1 | inconclusive: 18.4 µM [falling, single point] |
| COc1ccc(N2CCN(C(=O)c3cc4c(-c5ccccc5F)nn(C)c4s3)CC2)cc1 | inconclusive: 29.1 µM [falling, single point] |
| COc1ccc(OC)c(NC2=C(c3ccccc3)C(=O)c3ccccc32)c1 | inactive |
| COc1cc(/C=C/c2noc(-c3ccccc3O)n2)ccc1OC(C)=O | inconclusive: 29.1 µM [activator, single point] |
| O=C(NCCO)c1cccc(Nc2nc(-c3ccccc3)c3cc(Cl)ccc3n2)c1 | active: 14.6 µM |
| CCn1ccnc1CN1CCCC(C(=O)c2ccc3cc(OC)ccc3c2)C1 (stereo not given) | inconclusive: 29.1 µM [falling, partial curve, poor fit] |
| O=C1SC(SC(=Nc2ccccc2)Nc2ccccc2)C(=O)N1c1ccccc1 (stereo not given) | inconclusive: 10.3 µM [activator, partial curve] |
| Cc1c(C(=O)O)c(C(=O)O)c2n1CCS2 | inconclusive: 18.4 µM [activator, partial curve, poor fit] |
| Cc1cccc(C2=NNC(=O)C(c3ccc(Cl)cc3)C2)c1 (stereo not given) | inconclusive: 13 µM [falling, partial curve, poor fit] |
| COc1cccc(NC(=O)CN(C)C(=O)c2ccccc2OCC(=O)Nc2cccc(C(F)(F)F)c2)c1 | inconclusive: 29.1 µM [falling, single point] |
| COC(=O)c1ccc(CSc2nc3c(c(=O)n2-c2ccc(Br)cc2)SCC3)o1 | inconclusive: 2.59 µM [activator, partial curve, poor fit] |

Arranged by length of the SMILES (largest number first): some entries from above

| SMILES | Potency |
| --- | --- |
| CN1C[C@@H]2C[C@@H](c3cccn3-c3nccs3)N3CCC[C@@]23C1=O | inconclusive: 5.8 µM [activator, full curve, poor fit] |
| CCn1ccnc1CN1CCCC(C(=O)c2ccc3cc(OC)ccc3c2)C1 (stereo not given) | inconclusive: 29.1 µM [falling, partial curve, poor fit] |
| CC1CCN(C(=S)Nc2ccc(SC(F)F)cc2)CC1 | inconclusive: 6.51 µM [activator, single point] |
